# Experimental data as given in the supplement of paper PMC8728848.
# The list shows a part of the results.
# Key:
# Experiment in all cases: glycan array binding signal (z-score within array); higher = stronger binding
# Settings in all cases: glycan notation: IUPAC condensed, linker removed
# [1] = target: Neu5Ac(a2-3)Gal(b1-4)[Fuc(a1-3)]GlcNAc(b1-3)GalNAc
# In short: (§1)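 The Consortium for Functional Glycomics database supplied 3228 glycan arrays, of which those lacking an available protein sequence were dropped. The binding signal, a within-array Z-score, was averaged across arrays of the same protein sequence and across linkers. Negative scores can be read as non-binding.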
# [2] = target: Neu5Ac(a2-3)Gal(b1-4)[Fuc(a1-3)]GlcNAc(b1-6)[Gal(b1-3)]GalNAc
# In short: as §1
# [3] = target: Neu5Ac(a2-3)Gal(b1-4)[Fuc(a1-3)]GlcNAc(b1-6)[Neu5Ac(a2-3)Gal(b1-3)]GalNAc
# In short: as §1
# [4] = target: Neu5Ac(a2-3)Gal(b1-4)[Fuc(a1-3)]GlcNAc6S
# In short: as §1
# [5] = target: Neu5Ac(a2-3)Gal6S(b1-4)GlcNAc
# In short: as §1
# [6] = target: Neu5Ac(a2-3)Gal6S(b1-4)[Fuc(a1-3)]GlcNAc
# In short: as §1
# [7] = target: Neu5Ac(a2-3)GalNAc
# In short: as §1
# [8] = target: Neu5Ac(a2-3)GalNAc(b1-4)GlcNAc
# In short: as §1
# [9] = target: Neu5Ac(a2-3)[GalNAc(b1-4)]Gal(b1-4)Glc
# In short: as §1
# [10] = target: Neu5Ac(a2-3)[GalNAc(b1-4)]Gal(b1-4)GlcNAc
# In short: as §1
# [11] = target: Neu5Ac(a2-3)[GalNAc(b1-4)]Gal(b1-4)GlcNAc(b1-3)GalNAc
# In short: as §1
# [12] = target: Neu5Ac(a2-3)[Neu5Ac(a2-6)]GalNAc
# In short: as §1
# [13] = target: Neu5Ac(a2-6)Gal
# In short: as §1
# [14] = target: Neu5Ac(a2-6)Gal(b1-3)GlcNAc(b1-3)[Gal(b1-4)GlcNAc(b1-6)]Gal(b1-4)Glc
# In short: as §1
# [15] = target: Neu5Ac(a2-6)Gal(b1-4)Glc
# In short: as §1
# [16] = target: Neu5Ac(a2-6)Gal(b1-4)GlcNAc
# In short: as §1
# [17] = target: Neu5Ac(a2-6)Gal(b1-4)GlcNAc(b1-2)Man
# In short: as §1
# [18] = target: Neu5Ac(a2-6)Gal(b1-4)GlcNAc(b1-2)Man(a1-3)Man(b1-4)GlcNAc(b1-4)GlcNAc
# In short: as §1
# [19] = target: Neu5Ac(a2-6)Gal(b1-4)GlcNAc(b1-2)Man(a1-3)[Gal(b1-4)GlcNAc(b1-2)Man(a1-6)]Man(b1-4)GlcNAc(b1-4)GlcNAc
# In short: as §1
# [20] = target: Neu5Ac(a2-6)Gal(b1-4)GlcNAc(b1-2)Man(a1-3)[GlcNAc(b1-2)Man(a1-6)]Man(b1-4)GlcNAc(b1-4)GlcNAc
# In short: as §1
# [21] = target: Neu5Ac(a2-6)Gal(b1-4)GlcNAc(b1-2)Man(a1-3)[GlcNAc(b1-2)Man(b1-4)GlcNAc(b1-2)Man(a1-6)]Man(b1-4)GlcNAc(b1-4)GlcNAc
# In short: as §1
# [22] = target: Neu5Ac(a2-6)Gal(b1-4)GlcNAc(b1-2)Man(a1-3)[GlcNAc(b1-4)][Neu5Ac(a2-6)Gal(b1-4)GlcNAc(b1-2)Man(a1-6)]Man(b1-4)GlcNAc(b1-4)GlcNAc
# In short: as §1
# [23] = target: Neu5Ac(a2-6)Gal(b1-4)GlcNAc(b1-2)Man(a1-3)[Man(a1-6)]Man(b1-4)GlcNAc(b1-4)GlcNAc
# In short: as §1
# [24] = target: Neu5Ac(a2-6)Gal(b1-4)GlcNAc(b1-2)Man(a1-3)[Neu5Ac(a2-3)Gal(b1-4)GlcNAc(b1-2)Man(a1-6)]Man(b1-4)GlcNAc(b1-4)GlcNAc
# In short: as §1
# [25] = target: Neu5Ac(a2-6)Gal(b1-4)GlcNAc(b1-2)Man(a1-3)[Neu5Ac(a2-6)Gal(b1-4)GlcNAc(b1-2)Man(a1-6)]Man(b1-4)GlcNAc(b1-4)GlcNAc
# In short: as §1
# [26] = target: Neu5Ac(a2-6)Gal(b1-4)GlcNAc(b1-2)Man(a1-3)[Neu5Ac(a2-6)Gal(b1-4)GlcNAc(b1-2)Man(a1-6)]Man(b1-4)GlcNAc(b1-4)[Fuc(a1-6)]GlcNAc
# In short: as §1
# [27] = target: Neu5Ac(a2-6)Gal(b1-4)GlcNAc(b1-2)Man(a1-6)Man(b1-4)GlcNAc(b1-4)GlcNAc
# In short: as §1
# [28] = target: Neu5Ac(a2-6)Gal(b1-4)GlcNAc(b1-2)Man(a1-6)[Gal(b1-4)GlcNAc(b1-2)Man(a1-3)]Man(b1-4)GlcNAc(b1-4)GlcNAc
# In short: as §1
binder,measurement,setting,value
"Gal 12 (Homo sapiens), Q96DT0 (protein) MSQPSGGRAPGTRIYSWSCPTVMSPGEKLDPIPDSFILQPPVFHPVVPYVTTIFGGLHAGKMVMLQGVVPLDAHRFQVDFQCGCSLCPRPDIAFHFNPRFHTTKPHVICNTLHGGRWQREARWPHLALRRGSSFLILFLFGNEEVKVSVNGQHFLHFRYRLPLSHVDTLGIFGDILVEAVGFLNINPFVEGSREYPAGHPFLLMSPRLEVPCSHALPQGLSPGQVIIVRGLVLQEPKHFTVSLRDQAAHAPVTLRASFADRTLAWISRWGQKKLISAPFLFYPQRFFEVLLLFQEGGLKLALNGQGLGATSMNQQALEQLRELRISGSVQLYCVHS",glycan array binding signal (z-score),[1],2.37
same,glycan array binding signal (z-score),[2],1.12
same,glycan array binding signal (z-score),[3],1.82
same,glycan array binding signal (z-score),[4],-0.112
same,glycan array binding signal (z-score),[5],-0.309
same,glycan array binding signal (z-score),[6],-0.698
same,glycan array binding signal (z-score),[7],-0.835
same,glycan array binding signal (z-score),[8],-0.918
same,glycan array binding signal (z-score),[9],-0.263
same,glycan array binding signal (z-score),[10],-0.331
same,glycan array binding signal (z-score),[11],-0.063
same,glycan array binding signal (z-score),[12],-0.175
same,glycan array binding signal (z-score),[13],0.821
same,glycan array binding signal (z-score),[14],-0.351
same,glycan array binding signal (z-score),[15],0.189
same,glycan array binding signal (z-score),[16],-0.58
same,glycan array binding signal (z-score),[17],-0.623
same,glycan array binding signal (z-score),[18],0.102
same,glycan array binding signal (z-score),[19],-0.942
same,glycan array binding signal (z-score),[20],-0.036
same,glycan array binding signal (z-score),[21],0.364
same,glycan array binding signal (z-score),[22],-0.856
same,glycan array binding signal (z-score),[23],0.174
same,glycan array binding signal (z-score),[24],-0.815
same,glycan array binding signal (z-score),[25],-0.039
same,glycan array binding signal (z-score),[26],1.24
same,glycan array binding signal (z-score),[27],-0.138
same,glycan array binding signal (z-score),[28],0.06

# A run of entries of the results above, for reference:
binder,measurement,setting,value
"Gal 12 (Homo sapiens), Q96DT0 (protein) MSQPSGGRAPGTRIYSWSCPTVMSPGEKLDPIPDSFILQPPVFHPVVPYVTTIFGGLHAGKMVMLQGVVPLDAHRFQVDFQCGCSLCPRPDIAFHFNPRFHTTKPHVICNTLHGGRWQREARWPHLALRRGSSFLILFLFGNEEVKVSVNGQHFLHFRYRLPLSHVDTLGIFGDILVEAVGFLNINPFVEGSREYPAGHPFLLMSPRLEVPCSHALPQGLSPGQVIIVRGLVLQEPKHFTVSLRDQAAHAPVTLRASFADRTLAWISRWGQKKLISAPFLFYPQRFFEVLLLFQEGGLKLALNGQGLGATSMNQQALEQLRELRISGSVQLYCVHS",glycan array binding signal (z-score),[8],-0.918
same,glycan array binding signal (z-score),[9],-0.263
